Reference: US20250000908A1, “METHODS FOR PREPARING AND ADMINISTERING CRYOPRESERVED PLATELETS AND PLATELET DERIVATIVES LOADED WITH ANTI-CANCER DRUGS” (Cellphire, Inc., priority 2023, published 2025)
At least one structure is not confirmed: it was looked up by name or label, or the drawing left a doubt.

System: HepG2 cells
Assay: receptor mediated binding between CPP or FPH and HepG2 cells with inhibitors / blocking mabs
Format: cell-based, human
Settings: inhibitor / blocking mab tested, Table 7
Protocol: Receptor mediated binding between CPP or FPH with HepG2 cells was investigated by inhibiting either a platelet receptor or a HepG2 receptor. Pooled apheresis platelets were incubated with 50 μM CFDA-Se for 60 minutes at room temperature then acidified to pH of 6.6-6.8 with citric acid. CPP and FPH were then created as disclosed in Example 1 but without doxorubicin. Untreated HepG2 cells served as negative control groups. HepG2 cells were seeded at a density of 10^5 cells in a 12-well plate (NuncTM Cell-Culture Treated Multidishes, catalog no: 150628) After incubation for 24 hours, the original medium was […] hours with fresh 0.5% FBS DMEM (ATCC-formulated Eagle's Minimum Essential Medium, catalog No. 30-2003). To determine the effect of platelet receptor inhibition on the binding between CPP/FPH and HepG2 cells first both CPP and FPH were incubated with tirofiban to block the GpIIb/IIIa receptor. […] The fluorescence intensity was determined by flow cytometry with the FITC channel. Approximately 10,0000 events for each sample was measured to assess the surface binding between the HepG2 cells and tirofiban treated CPP or FPH. […] The fluorescence intensity was determined by flow cytometry with the FITC channel. Approximately 10,0000 events for each sample was measured to assess the surface binding between the HepG2 cells CPP or FPH. […]

SMILES: COC[C@H]1OC(=O)c2coc3c2[C@@]1(C)C1=C(C3=O)[C@@H]2CCC(=O)[C@@]2(C)C[C@H]1OC(C)=O [Wortmannin]
- change of CPP/FPH binding to HepG2 cells in comparison to control: Significance
